Measurements from PMC6207757.

What was measured:
[1] = target: T1, KIF24 (partner in the domain mapping of MPP9) (UniProt Q5T7B8); assay: pull-down + two-hybrid; domain mapping by pull-down with purified proteins in vitro and by yeast two-hybrid (AH109, quadruple selective medium); which method stands behind each panel of Supplementary Fig. 3f-n is not given
T1 sequence: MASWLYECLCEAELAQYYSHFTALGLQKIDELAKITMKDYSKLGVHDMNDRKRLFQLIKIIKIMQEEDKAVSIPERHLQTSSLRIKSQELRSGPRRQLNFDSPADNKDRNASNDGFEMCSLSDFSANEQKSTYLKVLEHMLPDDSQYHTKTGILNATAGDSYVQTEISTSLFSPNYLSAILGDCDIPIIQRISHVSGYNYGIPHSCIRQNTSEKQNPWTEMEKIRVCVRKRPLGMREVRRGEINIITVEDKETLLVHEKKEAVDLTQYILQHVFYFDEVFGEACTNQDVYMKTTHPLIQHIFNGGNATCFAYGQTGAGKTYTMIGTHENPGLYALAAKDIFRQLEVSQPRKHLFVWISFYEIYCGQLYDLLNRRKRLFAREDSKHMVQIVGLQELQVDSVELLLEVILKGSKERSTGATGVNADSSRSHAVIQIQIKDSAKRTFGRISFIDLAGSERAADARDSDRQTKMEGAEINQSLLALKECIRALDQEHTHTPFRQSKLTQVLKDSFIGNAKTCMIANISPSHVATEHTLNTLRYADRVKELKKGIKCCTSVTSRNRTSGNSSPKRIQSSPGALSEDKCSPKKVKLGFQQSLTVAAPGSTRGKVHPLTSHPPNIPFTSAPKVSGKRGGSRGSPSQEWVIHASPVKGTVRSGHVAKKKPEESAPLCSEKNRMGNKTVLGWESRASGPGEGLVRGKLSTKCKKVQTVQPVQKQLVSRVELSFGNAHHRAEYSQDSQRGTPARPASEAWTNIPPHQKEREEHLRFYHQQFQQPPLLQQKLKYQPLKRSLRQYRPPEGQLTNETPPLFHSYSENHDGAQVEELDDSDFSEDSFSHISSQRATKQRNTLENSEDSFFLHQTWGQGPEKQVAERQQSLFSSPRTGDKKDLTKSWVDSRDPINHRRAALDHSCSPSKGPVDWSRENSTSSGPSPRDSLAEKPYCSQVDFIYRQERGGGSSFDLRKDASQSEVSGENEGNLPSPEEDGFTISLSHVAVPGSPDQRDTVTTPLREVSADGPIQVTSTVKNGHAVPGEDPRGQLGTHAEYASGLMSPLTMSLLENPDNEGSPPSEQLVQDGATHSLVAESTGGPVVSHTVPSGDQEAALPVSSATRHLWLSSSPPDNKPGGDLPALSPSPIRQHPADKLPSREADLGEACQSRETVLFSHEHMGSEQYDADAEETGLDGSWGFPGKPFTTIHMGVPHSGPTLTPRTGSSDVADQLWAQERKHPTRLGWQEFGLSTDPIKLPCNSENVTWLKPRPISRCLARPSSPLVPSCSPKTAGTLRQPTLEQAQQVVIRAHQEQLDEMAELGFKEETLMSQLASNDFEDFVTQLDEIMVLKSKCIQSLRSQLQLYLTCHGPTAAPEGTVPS

[2] = target: T2, CEP97 (partner in the domain mapping of MPP9) (UniProt Q8IW35); assay: as above
T2 sequence: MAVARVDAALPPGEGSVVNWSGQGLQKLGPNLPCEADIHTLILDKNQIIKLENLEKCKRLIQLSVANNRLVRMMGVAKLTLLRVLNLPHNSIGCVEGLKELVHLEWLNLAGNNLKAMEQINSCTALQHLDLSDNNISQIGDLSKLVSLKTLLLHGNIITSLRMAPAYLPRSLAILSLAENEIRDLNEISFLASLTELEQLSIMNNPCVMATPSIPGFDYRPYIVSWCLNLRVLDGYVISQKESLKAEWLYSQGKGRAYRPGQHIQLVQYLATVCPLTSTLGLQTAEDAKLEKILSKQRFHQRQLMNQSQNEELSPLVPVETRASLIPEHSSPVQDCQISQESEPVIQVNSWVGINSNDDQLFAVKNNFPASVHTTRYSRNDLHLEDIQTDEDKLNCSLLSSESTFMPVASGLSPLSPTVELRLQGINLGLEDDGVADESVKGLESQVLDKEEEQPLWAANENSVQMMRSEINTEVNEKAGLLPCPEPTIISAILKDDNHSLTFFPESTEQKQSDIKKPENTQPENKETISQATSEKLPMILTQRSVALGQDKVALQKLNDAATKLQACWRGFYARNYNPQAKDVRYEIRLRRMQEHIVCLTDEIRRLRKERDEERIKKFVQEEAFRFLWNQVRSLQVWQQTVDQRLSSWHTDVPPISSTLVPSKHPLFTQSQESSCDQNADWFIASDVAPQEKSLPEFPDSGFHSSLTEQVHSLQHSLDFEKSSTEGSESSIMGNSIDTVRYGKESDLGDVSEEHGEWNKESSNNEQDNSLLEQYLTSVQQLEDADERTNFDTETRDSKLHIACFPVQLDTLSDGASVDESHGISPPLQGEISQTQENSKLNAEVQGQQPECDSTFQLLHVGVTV

binding [1]	binding [2]	Substance
binds		MPP9 (801–1031 aa) (domain or fragment)
	binds	MPP9 (451-500 aa) (domain or fragment)
	binds	MPP9 (401-800 aa) (domain or fragment)

These are yes or no findings as the source states them, for the method shown. In cells and extracts the contact can be indirect. A result given as binding can be weak or reduced; the word gives no strength.
